Measured values as given in article PMC7862700.
This is a selection; strong and weak results do not stand in their true shares. At the low end of the ranking the order means little.

molecular target: SPI1 (UniProt P17947); assay: DAPPL (digital affinity profiling via proximity ligation, sequencing); conditions: 10 mM Tris-HCl pH 7.5, 50 mM NaCl, 1 mM DTT, 4% glycerol, room temperature, 30 min; GST-TFs on glutathione beads, 16-mer random dsDNA library, 0.1% …; high values mean tight binding; double strand, one strand shown; scale: fold enrichment (6-mer frequency, TF over GST control)

Row | Sequence | binding signal
1 | TAAACT | 1.15
2 | CGCACA | 0.998
3 | GCCAAC | 0.935
4 | GTCCGC | 0.931
5 | TCCGCT | 3.26
6 | CAAGTT | 0.993
7 | TAGTAG | 0.935
8 | CCAAGC | 0.956
9 | TGTCTG | 1.17
10 | TAAGGC | 0.856
11 | TGTCAG | 0.974
12 | CTGTGT | 0.846
13 | AGTAAC | 1.07
14 | GTACAA | 1.06
15 | ACAAGG | 0.972
16 | CTACTG | 1.23
17 | GTAACC | 1.01
18 | CGCTGG | 0.968
19 | TGTTGC | 1.33

Row | Sequence | binding signal
20 | TGTATT | 1.28
21 | CTTCCC | 3.35
22 | TCGAGC | 0.938
23 | TCATGA | 0.973
24 | CAGCAC | 0.936
25 | CGAAGA | 0.759
26 | AGAACT | 0.924
27 | GAGAAT | 0.721
28 | GGGCAT | 0.849
29 | ATAATA | 1.18
30 | ATTATA | 1.2
31 | GGTGGT | 0.991
32 | GGTACT | 1.19
33 | CCAAGT | 0.89
34 | GCCGCT | 1.12
35 | CCGGCG | 0.97
36 | GTATGT | 0.95
37 | AGCATA | 0.927
38 | CCACGT | 0.845

Entries 33 through 34 of the list above:
Row | Sequence | binding signal
33 | CCAAGT | 0.89
34 | GCCGCT | 1.12
